Reference: publication doi:10.1101/2023.01.27.525918
The exact form of at least one protein or probe is not confirmed. At least one verdict was read from the data and is not stated in words by the source.

Tested on: ZUP1 + RPA complex WT (RPA70/RPA32/RPA14)
Assay: SEC
Settings: ZUP1-RPA interaction maintained in presence of dT100

Sequence: TTTTTTTTTTTTTTTTTTTTTTTTTTTTTTTTTTTTTTTTTTTTTTTTTTTTTTTTTTTTTTTTTTTTTTTTTTTTTTTTTTTTTTTTTTTTTTTTTTTT [dT100]
- binding result: binds
